Test [1] has as its target growth-associated protein 43 (human (endogenous in umbilical cord MSCs)) (UniProt P17677). Briefly: co-IP; Hyp-MSCs lysed in Co-IP buffer, GAP43 antibody at 4 °C overnight, magnetic beads 4 h, western blot for TRIM25; cells transfected with HIF-1α siRNA or control. A general note: A western blot detects proteins with antibodies after separation by electrophoresis.
The target is the same in test [2]. Briefly: condition: only in Hyp-MSCs with HIF-1α overexpression; co-IP; Hyp-MSCs transfected with HIF-1α overexpressing plasmid; lysed in Co-IP buffer, GAP43 antibody at 4 °C overnight, magnetic beads 4 h, western blot for TRIM25.

Sequences of proteins named here, by UniProt entry; tags and fusion partners are left off.
UniProt P17677: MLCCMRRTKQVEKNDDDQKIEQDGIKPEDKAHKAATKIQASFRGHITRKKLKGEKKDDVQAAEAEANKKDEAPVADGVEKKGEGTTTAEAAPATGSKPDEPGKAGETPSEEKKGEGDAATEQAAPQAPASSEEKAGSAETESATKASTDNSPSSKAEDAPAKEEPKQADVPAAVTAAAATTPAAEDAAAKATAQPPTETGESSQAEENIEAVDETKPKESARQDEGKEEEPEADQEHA
UniProt Q14258: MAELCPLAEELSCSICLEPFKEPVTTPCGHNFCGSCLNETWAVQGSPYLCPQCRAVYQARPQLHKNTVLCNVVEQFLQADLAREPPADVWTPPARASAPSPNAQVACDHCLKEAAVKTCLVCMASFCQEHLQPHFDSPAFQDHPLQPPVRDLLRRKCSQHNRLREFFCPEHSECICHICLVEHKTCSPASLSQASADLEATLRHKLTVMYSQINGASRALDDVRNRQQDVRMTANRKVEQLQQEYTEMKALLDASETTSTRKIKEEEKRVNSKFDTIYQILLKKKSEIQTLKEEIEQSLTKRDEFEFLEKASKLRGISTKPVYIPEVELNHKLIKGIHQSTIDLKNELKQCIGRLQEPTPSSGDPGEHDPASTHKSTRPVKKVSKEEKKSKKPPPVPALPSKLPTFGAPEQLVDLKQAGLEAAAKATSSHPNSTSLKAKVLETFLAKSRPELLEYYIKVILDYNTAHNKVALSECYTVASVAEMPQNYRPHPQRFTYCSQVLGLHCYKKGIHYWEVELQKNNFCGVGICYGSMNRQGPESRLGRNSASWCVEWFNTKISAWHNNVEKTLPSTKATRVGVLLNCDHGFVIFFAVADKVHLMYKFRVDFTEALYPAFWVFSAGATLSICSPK

These are yes or no findings as the source states them, for the method shown. In cells and extracts the contact can be indirect. Some binding calls cover weakened binding; strength is not graded here.

“tripartite motif-containing protein 25 (from UniProt Q14258 1-630) (enzyme)”: the binding result in test [1] was “binds”; in test [2], “no binding”.

For the origin of these results see PMC10675959.
